## Library screen at single concentrations

By UniProt entry, the sequences of proteins in these tests, tags left out. Residues count along the entry.
UniProt Q8IDJ8, 1-583: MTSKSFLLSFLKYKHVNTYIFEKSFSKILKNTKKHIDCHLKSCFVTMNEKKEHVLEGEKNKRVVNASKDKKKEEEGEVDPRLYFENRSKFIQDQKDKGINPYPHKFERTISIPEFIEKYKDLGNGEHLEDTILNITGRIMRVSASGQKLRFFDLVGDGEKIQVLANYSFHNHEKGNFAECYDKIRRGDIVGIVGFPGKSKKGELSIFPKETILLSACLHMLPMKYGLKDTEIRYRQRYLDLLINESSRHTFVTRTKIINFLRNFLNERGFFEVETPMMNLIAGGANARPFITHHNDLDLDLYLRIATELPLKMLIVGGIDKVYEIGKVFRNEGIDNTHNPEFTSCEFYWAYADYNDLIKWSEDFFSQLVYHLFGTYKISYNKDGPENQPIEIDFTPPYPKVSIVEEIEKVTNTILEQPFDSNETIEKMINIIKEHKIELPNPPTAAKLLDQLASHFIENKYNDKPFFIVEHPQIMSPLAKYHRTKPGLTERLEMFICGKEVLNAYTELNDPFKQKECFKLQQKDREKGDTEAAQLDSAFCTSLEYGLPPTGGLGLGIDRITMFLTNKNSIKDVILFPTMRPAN

Measurements from “University of Dundee, Small-Polar-MMV Screening Library” (2021), ChEMBL document CHEMBL3988442.

A: 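Assay of Toxoplasma gondii numbers, read through their beta-galactosidase reporter with a colour substrate. Concentration: 10 µM. Higher reads as fewer parasites (inferred from which compounds were picked for retests). Of about 67,000 compounds tested this way, about 260 (0.38%) reached 50% or more in at least one test.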
B: 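Whole-parasite assay of Trypanosoma brucei over 72 hours; the read-out is not stated. Tested at 30 µM. Higher reads as stronger inhibition (inferred: compounds with an IC50 in retests scored well above the rest). Values scatter widely below zero; nearly all retest evidence comes from the higher of the two concentrations used. About 64,000 compounds were tested under these conditions; 1.5% (about 940) showed 50% or more at least once.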
C: 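Cell assay of Leishmania donovani living inside macrophages; the read-out is not stated. Concentration: 30 µM. Direction is inferred from retests: higher values go with stronger inhibition. About 69,000 compounds were tested under these conditions; 1.5% (about 1,000) showed 50% or more at least once.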
D: 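Lysine-tRNA ligase, Plasmodium falciparum 3D7 (UniProt Q8IDJ8). Enzyme assay of the cytosolic lysyl-tRNA synthetase in 384-well plates, read by luminescence. Compounds at 30 µM. Higher reads as stronger inhibition, judged from the few compounds that gave an IC50. Of about 69,000 compounds tested this way, about 49 (0.071%) reached 50% or more in at least one test.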

Values are the deposited “Percent Effect”, in %.
The controls that fix the scale are not given in the record; negative values are as filed.
This is an unselected part of the compounds tested.
Two or more numbers in one place are separate tests of the same structure; such repeats can differ widely.
A dash means the value is not listed here; it may have been measured.

compound | A | B | C | D
O=C(O)C(F)(F)F.O=C1N(CC2CCCC2)CCC12CCN(c1ncc(F)cn1)CC2 | -21.9 | -27.57 | 23.16 | -
CCN1CC2(CC1=O)CN(C(=O)c1ccco1)CCN(C(=O)C(C)C)C2 (stereo unspecified) | 7.618 | -21.15 | 24.12 | 6.056
COc1ccc(OC)c(C2CCN(C(=O)CCc3n[nH]c(N)n3)C2)c1 (stereo unspecified) | 2.013 | 1.912 | 25.04 | 1.613
Cc1nc(NCc2noc(C3CCCO3)n2)c2sccc2n1 (stereo unspecified) | -7.169 | -4.426 | 29.04 | 0.04693
O=C(NCc1cc(O)ncn1)C1CCOc2ccccc2C1 (stereo unspecified) | -3.86 | 30.84 | 23.09 | 0.4914
O=C(NCC(=O)N1CCCC1)c1nc(Cc2c(Cl)cccc2Cl)no1 | 19.13 | -1.49 | -0.9232 | 3.554
O=C1CCN(C(=O)c2ncoc2-c2ccco2)c2ncccc2N1 | -0.4023 | -8.053 | 6.103 | 5.367
Cc1ncsc1C(=O)NCC1CCC2(CCNCC2)CO1 (stereo unspecified) | - | - | - | 4.358
c1ncc2c(n1)CN(Cc1nc(-c3ccoc3)no1)CC2 | -28.11 | - | 9.136 | -0.7872
Cc1cccc(CN2C(=O)CCC23CCN(c2ncc(F)cn2)CC3)n1 | - | - | - | 5.07
O=C(NCCN1CCOCC1)c1cnc(-c2ccccc2F)s1 | -6.966 | -15.64 | 22.89 | 5.967
O=C(c1nc2c(s1)CCCN2C(=O)C1CC1)N1CCOCC1 | 18.52 | -34.7 | 9.904 and 3.879 | 2.88
Cc1nc[nH]c1CN1CCOC(c2ccc(Cl)c(Cl)c2)C1 (stereo unspecified) | -20.22 | -46.27 | 30.57 | 5.241
CCc1ncncc1C(=O)NC1CCc2nc(C)cn2C1 (stereo unspecified) | 6.112 | - | 17 | -2.046
COc1c(CNCc2ccc(C(=O)N(C)C)cc2)c(C)nn1C.Cl | 0.1687 | 26.25 | 56.22 | -
CCN(CC)CCn1cnc(-c2ccccc2)c1-c1cnn(CC)c1 | -16.9 | - | -40.41 | 1.028
O=C(O)C(F)(F)F.[H][C@]12CCN(C(=O)Cc3ccc(OC)cc3)CC[C@@]1([H])S(=O)(=O)CCN2C | 8.561 | -187.9 | 20.99 | -
CCN(C(=O)Nc1cccnc1OC)C1CC1 | 4.87 | 29.78 | 22.39 | 5.785
Cc1nc(CN2C[C@@H]3CN(C(=O)[C@H]4CCCO4)C[C@@H]3C2=O)cs1 | - | - | - | 2.369
O=C(CN1CCOC1=O)N1CCc2nnc(-c3ccccc3)n2CC1 | 5.001 | -48.83 | -1.4 | 2.277
O=C1CCC2(CCCN(C(=O)Cc3ccccn3)C2)N1 (stereo unspecified) | -6.769 | -5.815 | 18.96 | 2.593
Oc1cc(CN2CCC(O)(Cn3ccnc3)CC2)nc2ccc(F)cc12 | 13.41 | 10.31 | 12.45 | 1.359
O=C(NCCC1CCCCO1)c1cc(COc2ccccc2F)[nH]n1 (stereo unspecified) | 5.783 | 6.176 | 17.02 | 3.782
CC(C)N1CCO[C@H]2CN(C(=O)c3ccc(N(C)C)cc3)C[C@H]21 | - | - | - | 0.8074
[H][C@@]12CCCO[C@]1([H])[C@@H](OCc1cccnc1)CN2c1cc(OC)ncn1 | -2.013 | 12.53 | 27.32 | -
CC(=O)Nc1ccc(CN2CCc3[nH]cnc3C2c2ccc(C)o2)cc1 (stereo unspecified) | 14.29 | -14.26 | 10.08 | 0.6822
CCCOc1cc(C)ccc1NC(=O)N(C)C | 11.61 | - | 19.19 | 7.51
Cc1noc(-c2ccc(N3CCCC(C(=O)O)C3)nc2)n1 (stereo unspecified) | 11.48 | -9.777 | 10.35 | -3.351
CCCn1ncc2c(C(=O)Nc3cnn(CC)c3C)cc(C3CC3)nc21 | -3.474 | 28.68 | 23.6 | 2.877
Cc1ccc(-c2ccc(Cl)nn2)cc1S(=O)(=O)N1CCOCC1 | -4.153 | 3.56 | 20.15 | 2.323
NC(=O)N1C[C@H](NC(=O)c2cscn2)[C@@H]2OCCC[C@@H]21 | - | - | - | 5.35
Cc1ccc(CCC(=O)N2CCC(Nc3cccnn3)CC2)cc1 | 0.3051 | -2.786 | -1.516 | 1.236
COc1ccccc1C(=O)N1CCN(C(=O)Cc2ccccn2)CC1 | -2.41 | -20.3 | 12.46 | -1.231
O=C(O)C(=O)O.c1cnc(-c2noc(C3CN(Cc4ccsc4)C3)n2)cn1 | 3.346 | 16.09 | 15.23 and 9.536 | -
CN1C(=O)C[C@@H]2[C@@H]1CCN2C(=O)c1ccc[nH]1 | - | - | - | -5.705
CN(C)c1nc2c(c(=O)[nH]1)CCN(C(=O)C1CCCO1)C2 (stereo unspecified) | -46.21 | -62.25 | 16.81 | -1.849
O=C(O)C(F)(F)F.[H][C@@]12CCN(c3ncccn3)[C@@]1([H])CCN2S(=O)(=O)c1cccc(C)c1 | -1.755 | -57.29 | 16.65 | -
NS(=O)(=O)CC1CCCN(C(=O)CCCC2CCCC2)C1 (stereo unspecified) | -9.601 | -19.83 | -25.9 and 19.04 | 4.221
Cc1nc(N[C@H]2COC[C@@H]2N2CCCCC2)c2c(C)nn(C)c2n1 | -4.421 | 9.49 | -5.375 | 2.915
CS(=O)(=O)NC[C@H]1OC[C@H]2CN(Cc3ccsc3)CC[C@H]21 | - | - | - | 2.037
CCn1ccc(C(=O)N2CCCC2(C)c2nc(C)cc(N(C)C)n2)n1 (stereo unspecified) | 0.6786 | 11.54 | 26.06 | -0.1597
CCC1CCCN(CC(=O)Nc2oc(C)c3c(C)n[nH]c(=O)c23)C1 (stereo unspecified) | 4.265 | -5.93 | -1.802 | -2.19
CNS(=O)(=O)c1ccccc1N1CCN(C(=O)NC(C)C)CC1 | 3.245 | -6.64 | -8.192 | 2.639
Cc1nc(COC[C@@]23CCC[C@@H]2CN(Cc2nccs2)C3)cs1 | - | - | - | 4.746
O=C(O)C(F)(F)F.[H][C@]12CCN(C(=O)NCc3ccccc3)C[C@@]1([H])OCCN(CCOC)C2 | -2.152 | -29.02 | -7.929 | -
Cc1cccc(C(=O)N2CCCC(c3nccn3Cc3cscn3)C2)n1 (stereo unspecified) | -8.597 | -9.671 | 9.586 | 2.267
CCC1CN(C)c2ccccc2CN1CCn1cncn1 (stereo unspecified) | 2.907 | 56.46 | -12.68 | -0.8692
OC1(CNCc2noc(Cc3ccccc3)n2)CCCNC1 (stereo unspecified) | 3.808 | 3.859 | 23.77 | 3.829
Cc1ccc(CN2CCc3c(CN4CCCC4)n[nH]c3C2)s1 | - | - | - | 5.407
COC(=O)CCn1ccc(=O)c2cc(OC)ccc21 | 22.9 | -36.39 | 12.23 | 2.684
CN(C)C1CC2(CCN(C(=O)NC3CC3)CC2)c2ccccc21 (stereo unspecified) | - | - | - | 3.748
O=C(COCCOc1ccccc1)Nc1ccnn1CC1CCOC1 (stereo unspecified) | 9.32 | -13.93 | -8.432 | -1.187
Nc1cc(-c2cccs2)nn(CC(=O)N2CCc3ccccc32)c1=O | 7.494 | - | -3.746 | 1.693
c1ccc(Cc2noc(-c3ccc(NCC4COCCO4)nc3)n2)cc1 (stereo unspecified) | -2.971 | 4.095 | -39.41 | 3.395
Cn1ccnc1CN1CCCC(Cc2ccccn2)C1 (stereo unspecified) | 32.09 | 35.1 | 16.83 | 2.457

Some entries from above, unchanged:

{"compound": "CC(C)N1CCO[C@H]2CN(C(=O)c3ccc(N(C)C)cc3)C[C@H]21", "D": 0.8074}
{"compound": "CCn1ccc(C(=O)N2CCCC2(C)c2nc(C)cc(N(C)C)n2)n1", "stereo": "stereo unspecified", "A": 0.6786, "B": 11.54, "C": 26.06, "D": -0.1597}
{"compound": "CN(C)C1CC2(CCN(C(=O)NC3CC3)CC2)c2ccccc21", "stereo": "stereo unspecified", "D": 3.748}
{"compound": "Cc1nc(NCc2noc(C3CCCO3)n2)c2sccc2n1", "stereo": "stereo unspecified", "A": -7.169, "B": -4.426, "C": 29.04, "D": 0.04693}
{"compound": "O=C(O)C(F)(F)F.[H][C@]12CCN(C(=O)NCc3ccccc3)C[C@@]1([H])OCCN(CCOC)C2", "A": -2.152, "B": -29.02, "C": -7.929}
{"compound": "Cc1cccc(C(=O)N2CCCC(c3nccn3Cc3cscn3)C2)n1", "stereo": "stereo unspecified", "A": -8.597, "B": -9.671, "C": 9.586, "D": 2.267}